Results: the supplement of paper PMC10849652
The list shows a part of the results.

By UniProt entry, the sequences of proteins in these tests, tags left out. Where a name states a change or a piece, a line headed by the entry shows the natural chain unless it says otherwise.
UniProt Q96QZ7: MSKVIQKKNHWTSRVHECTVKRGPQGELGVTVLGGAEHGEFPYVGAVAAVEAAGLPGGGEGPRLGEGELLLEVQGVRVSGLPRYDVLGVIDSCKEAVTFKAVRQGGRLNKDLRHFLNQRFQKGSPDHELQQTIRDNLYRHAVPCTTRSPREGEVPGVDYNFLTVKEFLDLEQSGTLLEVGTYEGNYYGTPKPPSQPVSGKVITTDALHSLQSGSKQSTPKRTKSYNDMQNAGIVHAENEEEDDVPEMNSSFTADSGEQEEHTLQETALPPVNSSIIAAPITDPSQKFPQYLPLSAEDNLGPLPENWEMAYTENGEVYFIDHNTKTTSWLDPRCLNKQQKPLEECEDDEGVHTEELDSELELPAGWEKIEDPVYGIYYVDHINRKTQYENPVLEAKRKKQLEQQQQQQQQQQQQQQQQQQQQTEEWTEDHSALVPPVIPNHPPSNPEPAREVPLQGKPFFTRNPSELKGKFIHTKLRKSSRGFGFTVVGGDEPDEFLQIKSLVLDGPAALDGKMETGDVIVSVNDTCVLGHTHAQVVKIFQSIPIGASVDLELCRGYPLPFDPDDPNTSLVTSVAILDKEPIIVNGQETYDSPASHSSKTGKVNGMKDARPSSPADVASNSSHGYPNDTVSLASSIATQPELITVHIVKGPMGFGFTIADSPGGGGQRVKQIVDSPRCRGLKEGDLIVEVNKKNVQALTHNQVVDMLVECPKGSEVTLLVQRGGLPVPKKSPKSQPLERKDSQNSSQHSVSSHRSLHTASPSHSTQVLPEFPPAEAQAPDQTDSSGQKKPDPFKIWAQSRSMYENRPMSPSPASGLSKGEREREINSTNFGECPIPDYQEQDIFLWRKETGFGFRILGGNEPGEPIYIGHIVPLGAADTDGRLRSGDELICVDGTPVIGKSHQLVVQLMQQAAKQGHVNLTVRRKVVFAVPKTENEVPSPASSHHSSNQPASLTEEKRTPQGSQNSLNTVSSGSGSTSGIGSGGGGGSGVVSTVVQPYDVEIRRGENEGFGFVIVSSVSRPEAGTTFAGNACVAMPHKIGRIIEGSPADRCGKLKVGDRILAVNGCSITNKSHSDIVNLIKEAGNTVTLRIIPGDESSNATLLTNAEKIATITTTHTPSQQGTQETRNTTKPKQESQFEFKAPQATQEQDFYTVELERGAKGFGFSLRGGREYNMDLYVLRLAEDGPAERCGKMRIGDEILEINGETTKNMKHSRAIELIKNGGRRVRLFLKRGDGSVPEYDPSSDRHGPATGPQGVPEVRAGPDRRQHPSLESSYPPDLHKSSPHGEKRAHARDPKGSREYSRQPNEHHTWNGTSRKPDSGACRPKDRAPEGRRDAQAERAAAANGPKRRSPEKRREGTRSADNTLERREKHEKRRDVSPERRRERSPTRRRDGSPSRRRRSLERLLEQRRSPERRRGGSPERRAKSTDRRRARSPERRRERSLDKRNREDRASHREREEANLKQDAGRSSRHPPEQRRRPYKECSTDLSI
UniProt Q96GA3: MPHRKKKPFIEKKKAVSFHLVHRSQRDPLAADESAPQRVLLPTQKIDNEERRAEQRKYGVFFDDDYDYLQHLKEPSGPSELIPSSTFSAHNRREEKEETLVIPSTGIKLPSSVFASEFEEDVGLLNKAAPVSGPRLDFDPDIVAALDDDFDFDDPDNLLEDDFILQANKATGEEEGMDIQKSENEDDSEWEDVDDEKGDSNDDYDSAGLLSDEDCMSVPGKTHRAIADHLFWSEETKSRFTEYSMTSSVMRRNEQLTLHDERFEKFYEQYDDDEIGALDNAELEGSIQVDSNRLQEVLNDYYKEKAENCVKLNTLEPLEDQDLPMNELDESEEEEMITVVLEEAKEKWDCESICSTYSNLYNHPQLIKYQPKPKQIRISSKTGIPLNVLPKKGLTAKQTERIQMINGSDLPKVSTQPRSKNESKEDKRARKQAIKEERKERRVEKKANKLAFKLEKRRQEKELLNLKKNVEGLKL
UniProt Q7L1W4: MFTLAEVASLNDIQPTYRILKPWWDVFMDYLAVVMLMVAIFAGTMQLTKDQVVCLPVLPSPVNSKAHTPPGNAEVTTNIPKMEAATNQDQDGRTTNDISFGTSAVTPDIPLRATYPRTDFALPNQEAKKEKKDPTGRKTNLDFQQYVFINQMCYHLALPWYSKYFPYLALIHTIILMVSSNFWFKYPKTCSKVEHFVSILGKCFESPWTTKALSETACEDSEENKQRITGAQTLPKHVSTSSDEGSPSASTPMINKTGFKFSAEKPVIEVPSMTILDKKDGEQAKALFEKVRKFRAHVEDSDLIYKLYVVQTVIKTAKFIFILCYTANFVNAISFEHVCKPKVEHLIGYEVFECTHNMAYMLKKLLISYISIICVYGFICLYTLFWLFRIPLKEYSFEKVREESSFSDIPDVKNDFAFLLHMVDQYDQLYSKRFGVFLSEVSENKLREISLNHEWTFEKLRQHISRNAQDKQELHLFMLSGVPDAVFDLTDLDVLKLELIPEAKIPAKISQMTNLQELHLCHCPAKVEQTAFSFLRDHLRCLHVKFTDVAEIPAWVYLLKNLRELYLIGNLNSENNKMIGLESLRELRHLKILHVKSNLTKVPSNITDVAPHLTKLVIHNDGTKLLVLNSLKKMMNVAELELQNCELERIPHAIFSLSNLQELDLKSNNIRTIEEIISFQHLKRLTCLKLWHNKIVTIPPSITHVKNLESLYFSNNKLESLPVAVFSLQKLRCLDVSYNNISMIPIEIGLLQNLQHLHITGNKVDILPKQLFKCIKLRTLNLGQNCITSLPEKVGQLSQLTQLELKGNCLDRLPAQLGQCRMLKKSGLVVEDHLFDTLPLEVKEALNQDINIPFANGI
UniProt Q9UBF1: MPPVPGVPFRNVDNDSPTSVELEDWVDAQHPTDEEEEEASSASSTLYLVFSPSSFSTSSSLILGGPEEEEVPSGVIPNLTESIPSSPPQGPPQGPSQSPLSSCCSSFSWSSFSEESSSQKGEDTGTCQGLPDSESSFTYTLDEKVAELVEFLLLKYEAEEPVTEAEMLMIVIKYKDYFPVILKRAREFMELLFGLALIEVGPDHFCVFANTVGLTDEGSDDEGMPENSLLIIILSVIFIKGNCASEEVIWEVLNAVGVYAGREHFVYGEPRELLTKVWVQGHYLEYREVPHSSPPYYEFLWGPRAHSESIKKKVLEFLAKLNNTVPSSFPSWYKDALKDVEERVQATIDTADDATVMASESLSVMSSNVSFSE
UniProt O94822: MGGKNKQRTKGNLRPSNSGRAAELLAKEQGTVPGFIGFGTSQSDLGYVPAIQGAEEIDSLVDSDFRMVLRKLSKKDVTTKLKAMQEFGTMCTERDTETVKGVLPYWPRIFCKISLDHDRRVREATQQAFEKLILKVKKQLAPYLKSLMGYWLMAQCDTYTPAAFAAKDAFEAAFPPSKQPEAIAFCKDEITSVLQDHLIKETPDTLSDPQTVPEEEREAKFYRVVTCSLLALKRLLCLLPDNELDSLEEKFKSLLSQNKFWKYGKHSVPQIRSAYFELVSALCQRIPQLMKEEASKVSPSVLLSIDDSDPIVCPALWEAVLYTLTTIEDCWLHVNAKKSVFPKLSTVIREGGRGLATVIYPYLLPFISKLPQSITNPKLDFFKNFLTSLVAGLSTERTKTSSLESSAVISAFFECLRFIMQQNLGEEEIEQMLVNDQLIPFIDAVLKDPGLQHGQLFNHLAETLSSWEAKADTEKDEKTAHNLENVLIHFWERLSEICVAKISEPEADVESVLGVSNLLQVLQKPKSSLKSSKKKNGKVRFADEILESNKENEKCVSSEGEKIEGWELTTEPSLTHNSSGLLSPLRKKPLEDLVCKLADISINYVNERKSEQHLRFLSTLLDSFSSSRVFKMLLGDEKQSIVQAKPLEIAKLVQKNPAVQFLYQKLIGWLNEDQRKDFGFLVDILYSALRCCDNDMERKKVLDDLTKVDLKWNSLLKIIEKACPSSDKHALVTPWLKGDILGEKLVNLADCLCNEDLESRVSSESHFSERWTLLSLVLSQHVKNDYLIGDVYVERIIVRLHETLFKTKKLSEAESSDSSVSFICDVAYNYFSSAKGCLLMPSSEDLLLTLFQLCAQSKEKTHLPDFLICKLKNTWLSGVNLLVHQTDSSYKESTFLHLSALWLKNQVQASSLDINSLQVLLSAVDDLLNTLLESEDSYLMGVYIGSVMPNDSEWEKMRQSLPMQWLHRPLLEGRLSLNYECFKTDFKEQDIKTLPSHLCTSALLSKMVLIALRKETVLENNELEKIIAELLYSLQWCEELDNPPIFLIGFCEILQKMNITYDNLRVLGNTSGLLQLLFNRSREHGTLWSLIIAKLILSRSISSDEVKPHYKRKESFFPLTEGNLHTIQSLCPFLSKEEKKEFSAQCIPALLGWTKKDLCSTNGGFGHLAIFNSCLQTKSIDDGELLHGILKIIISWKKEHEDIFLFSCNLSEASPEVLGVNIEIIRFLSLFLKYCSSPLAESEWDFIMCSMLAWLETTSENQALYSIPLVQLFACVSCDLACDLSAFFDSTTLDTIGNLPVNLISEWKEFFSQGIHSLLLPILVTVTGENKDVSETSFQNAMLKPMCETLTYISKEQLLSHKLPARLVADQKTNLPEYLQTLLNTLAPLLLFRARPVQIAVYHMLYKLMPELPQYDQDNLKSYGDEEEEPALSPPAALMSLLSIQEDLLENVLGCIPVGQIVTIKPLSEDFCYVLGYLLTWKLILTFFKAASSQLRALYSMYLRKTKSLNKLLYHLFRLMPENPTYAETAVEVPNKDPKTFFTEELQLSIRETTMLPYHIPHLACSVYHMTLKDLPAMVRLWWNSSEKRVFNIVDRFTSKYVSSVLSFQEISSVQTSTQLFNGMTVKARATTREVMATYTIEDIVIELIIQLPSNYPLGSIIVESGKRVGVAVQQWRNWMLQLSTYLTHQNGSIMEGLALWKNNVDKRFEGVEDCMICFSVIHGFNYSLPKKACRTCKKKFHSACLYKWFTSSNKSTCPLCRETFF
UniProt Q86X29: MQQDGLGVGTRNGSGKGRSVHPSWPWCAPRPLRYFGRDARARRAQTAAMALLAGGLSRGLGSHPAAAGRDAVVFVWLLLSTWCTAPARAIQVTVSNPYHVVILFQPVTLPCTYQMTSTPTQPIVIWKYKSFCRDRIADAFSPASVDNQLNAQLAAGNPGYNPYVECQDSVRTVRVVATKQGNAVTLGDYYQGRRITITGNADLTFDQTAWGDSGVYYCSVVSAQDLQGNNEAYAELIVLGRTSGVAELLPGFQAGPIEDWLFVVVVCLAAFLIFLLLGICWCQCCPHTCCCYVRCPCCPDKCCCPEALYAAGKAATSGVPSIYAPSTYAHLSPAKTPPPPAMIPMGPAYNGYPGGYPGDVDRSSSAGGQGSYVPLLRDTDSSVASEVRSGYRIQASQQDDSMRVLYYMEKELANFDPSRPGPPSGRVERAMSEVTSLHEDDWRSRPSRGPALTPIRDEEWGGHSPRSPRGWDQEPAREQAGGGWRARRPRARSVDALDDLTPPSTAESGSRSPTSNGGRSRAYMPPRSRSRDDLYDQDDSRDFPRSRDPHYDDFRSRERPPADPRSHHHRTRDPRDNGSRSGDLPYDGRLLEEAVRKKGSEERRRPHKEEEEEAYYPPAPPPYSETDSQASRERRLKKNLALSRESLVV
UniProt Q9UFC0: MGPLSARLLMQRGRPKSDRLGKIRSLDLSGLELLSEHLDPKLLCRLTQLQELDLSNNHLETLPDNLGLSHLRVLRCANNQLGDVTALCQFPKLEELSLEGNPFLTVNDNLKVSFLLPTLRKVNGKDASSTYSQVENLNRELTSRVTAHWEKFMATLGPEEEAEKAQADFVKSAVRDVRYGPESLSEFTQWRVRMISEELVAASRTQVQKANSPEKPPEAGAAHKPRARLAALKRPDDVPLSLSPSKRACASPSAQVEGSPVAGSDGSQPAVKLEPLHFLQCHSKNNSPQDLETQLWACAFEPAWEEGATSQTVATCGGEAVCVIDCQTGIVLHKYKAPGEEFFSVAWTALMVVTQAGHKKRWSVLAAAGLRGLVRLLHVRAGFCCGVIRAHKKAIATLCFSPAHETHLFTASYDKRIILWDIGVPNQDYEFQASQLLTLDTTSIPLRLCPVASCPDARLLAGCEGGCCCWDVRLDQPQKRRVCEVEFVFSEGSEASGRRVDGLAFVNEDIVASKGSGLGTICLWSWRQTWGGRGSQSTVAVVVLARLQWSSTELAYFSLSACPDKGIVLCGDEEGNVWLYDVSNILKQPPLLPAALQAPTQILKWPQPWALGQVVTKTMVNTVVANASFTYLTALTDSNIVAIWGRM
UniProt Q9UPY8, whole entry, looked up: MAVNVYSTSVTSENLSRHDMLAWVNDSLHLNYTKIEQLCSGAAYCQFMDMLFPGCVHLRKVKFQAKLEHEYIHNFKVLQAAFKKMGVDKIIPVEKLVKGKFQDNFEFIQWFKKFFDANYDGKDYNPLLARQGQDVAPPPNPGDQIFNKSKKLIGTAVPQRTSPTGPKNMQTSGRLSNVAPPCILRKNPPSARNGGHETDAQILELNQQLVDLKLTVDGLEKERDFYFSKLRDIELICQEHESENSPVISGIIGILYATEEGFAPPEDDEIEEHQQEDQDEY

How the values were obtained:
Test in all cases: log2 fold change, soluble protein after heating vs DMSO (PISA); higher = thermal stabilisation; K562 cells, 10 uM, 30 min; active = over 0.2 and 3.5 SD of the protein, either way, in both replicates (recomputed)
[1] = compound: CC[C@@H]1C(=O)N(C)c2cnc(Nc3ccc(C(=O)NC4CCN(C)CC4)cc3OC)nc2N1C1CCCC1
Outline: (§1)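 K562 cells at 2×10^6 cells/mL were exposed to 10 μM compound for 30 min, then aliquots were heated for 3 min across 48°C-58°C, pooled, and extracted in PBS containing 0.5% NP-40 at 4°C. The supernatant after 21,000xg for 90 min was taken as soluble protein and measured by TMTpro 16plex LC-MS/MS with channel sums equalised. Thermal stability is reported relative to control samples, with values from duplicates. Fold changes are given on a log2 scale.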

volasertib = compound: CC[C@@H]1C(=O)N(C)c2cnc(Nc3ccc(C(=O)N[C@H]4CC[C@H](N5CCN(CC6CC6)CC5)CC4)cc3OC)nc2N1C(C)C [volasertib]
Outline: as §1

[2] = compound: CC[C@H](C)N1C=C(C2=C(C=C(C=C21)C3=CN=C(C=C3)N4CCNCC4)C(=O)NCC5=C(C=C(NC5=O)C)C)C
Outline: as §1

epoxomicin = compound: CC[C@H](C)[C@@H](C(=O)N[C@@H]([C@@H](C)O)C(=O)N[C@@H](CC(C)C)C(=O)[C@]1(CO1)C)NC(=O)[C@H]([C@@H](C)CC)N(C)C(=O)C [epoxomicin]
Outline: as §1

[3] = compound: CCn1c(C(=O)N(C2CC2)C2CC2)cc2c3c(ncn3C)c(Nc3cc(C)n(C)n3)nc21
Outline: as §1

[4] = compound: CCn1cc(-c2ccnc3[nH]c(-c4cccc(CN(C)C)c4)cc23)c(-c2ccc(NC(=O)N(C)C)cc2)n1
Outline: as §1

[5] = compound: CN(C)CC(=O)Nc1ccc2[nH]c(=O)c3ccccc3c2c1
Outline: as §1

rosiglitazone = compound: CN(CCOC1=CC=C(C=C1)C[C@H]2C(=O)NC(=O)S2)C3=CC=CC=N3 (racemic) [rosiglitazone]
Outline: as §1

[6] = compound: CN1C2=C(C3=C1C(=O)N(N=C3)CC4=CC(=CC=C4)N)SC(=C2)S(=O)C
Outline: as §1

[7] = compound: CN1CCC(CNc2ccc3ncc(-c4cccc(OC(F)(F)F)c4)n3n2)CC1
Outline: as §1

Target | log2 fold change [1] | log2 fold change (volasertib) | log2 fold change [2] | log2 fold change (epoxomicin) | log2 fold change [3] | log2 fold change [4] | log2 fold change [5] | log2 fold change (rosiglitazone) | log2 fold change [6] | log2 fold change [7]
MALSU1 (UniProt Q96EH3) | inactive: 0.026 | inactive: 0.028 | inactive: -0.026 | inactive: 0.009 | inactive: 0.015 | inactive: 0.082 | inactive: -0.046 | inactive: -0.045 | inactive: -0.054 | inactive: -0.001
LSM14B (UniProt Q9BX40) | inactive: 0.025 | inactive: -0.181 | inactive: 0.105 | inactive: -0.043 | inactive: -0.031 | inactive: -0.056 | inactive: 0.038 | inactive: 0.057 | inactive: 0.181 | inactive: -0.015
MACO1 (UniProt Q8N5G2) | inactive: 0.031 | inactive: -0.011 | inactive: -0.029 | inactive: 0.035 | inactive: -0.013 | inactive: -0.004 | inactive: 0.051 | inactive: -0.035 | inactive: 0.042 | inactive: 0.024
MAGED2 (UniProt Q9UNF1) | inactive: 0.079 | inactive: -0.039 | inactive: -0.282 | inactive: -0.1 | inactive: -0.226 | inactive: -0.042 | inactive: 0.002 | inactive: 0.132 | inactive: 0.185 | inactive: -0.142
LYPLA2 (UniProt O95372) | inactive: 0.049 | inactive: -0.033 | inactive: 0.018 | active: 0.521 |  | inactive: -0.05 | inactive: 0.108 |  | inactive: -0.053 | inactive: 0.098
LUC7L2 (UniProt Q9Y383) | inactive: -0.171 | active: -0.345 | inactive: 0.044 | inactive: -0.017 |  | inactive: -0.003 | inactive: -0.001 |  | inactive: -0.025 | inactive: -0.073
MAP1LC3B2 (UniProt A6NCE7) | inactive: -0.074 | inactive: -0.072 | inactive: 0.05 | inactive: 0 |  | inactive: 0.004 | inactive: 0 |  | inactive: -0.015 | inactive: 0.108
MAP3K7 (UniProt O43318) | inactive: -0.015 | active: -0.369 | inactive: -0.008 | inactive: 0.018 |  | inactive: 0.043 | inactive: 0.046 |  | inactive: 0.079 | inactive: -0.093
MANEA (UniProt Q5SRI9) | inactive: -0.009 | inactive: -0.025 | inactive: -0.009 | inactive: 0.142 | inactive: -0.001 | inactive: 0.121 | inactive: 0.044 | inactive: 0.023 | inactive: 0.001 | inactive: -0.048
LTO1 (UniProt Q8WV07) | inactive: -0.018 | inactive: 0.322 | inactive: 0.058 | inactive: 0.063 |  | inactive: -0.029 | active: -0.312 |  | inactive: -0.105 | inactive: 0.035
MAPK8 isoform 3 (UniProt P45983) | inactive: -0.112 | inactive: -0.249 | inactive: 0.003 | inactive: 0.117 |  | inactive: 0.006 | inactive: 0.004 |  | inactive: 0.013 | inactive: -0.054
MAGI1 (UniProt Q96QZ7) | inactive: 0.041 | inactive: 0.031 | inactive: 0.026 | inactive: -0.045 |  | inactive: 0.012 | inactive: -0.041 |  | inactive: 0.014 | inactive: -0.011
MAP4 (UniProt P27816) | inactive: 0.011 | inactive: 0.049 | inactive: -0.041 | inactive: -0.003 |  | inactive: -0.002 | inactive: -0.03 |  | inactive: -0.004 | inactive: 0.037
MAGEA9 (UniProt P43362) | inactive: -0.11 | active: -0.39 | inactive: -0.057 | inactive: -0.044 |  | inactive: -0.088 | inactive: 0.044 |  | inactive: -0.084 | inactive: -0.116
LTBP4 (UniProt Q8N2S1) | inactive: 0.15 | inactive: 0.019 | inactive: 0.329 | inactive: -0.059 | inactive: -0.094 | inactive: -0.161 |  |  | inactive: -0.021 | inactive: 0.135
LRRFIP1 (UniProt Q32MZ4) | inactive: 0.06 | inactive: 0.099 | inactive: -0.075 | inactive: -0.019 |  | inactive: 0.028 | inactive: -0.004 |  | inactive: 0.011 | inactive: 0.013
LRRC8C (UniProt Q8TDW0) | inactive: 0.201 | inactive: 0.179 | inactive: -0.053 | inactive: -0.145 | inactive: 0.04 | inactive: -0.035 |  |  | inactive: 0.106 | inactive: 0.041
MADD isoform 2 (UniProt Q8WXG6) | inactive: -0.08 | inactive: -0.28 | inactive: 0.005 | inactive: -0.087 | inactive: -0.026 |  |  | inactive: -0.009 | inactive: 0.097 | 

Target | log2 fold change [1] | log2 fold change (volasertib) | log2 fold change [2] | log2 fold change (epoxomicin) | log2 fold change [3] | log2 fold change [4] | log2 fold change [5] | log2 fold change (rosiglitazone) | log2 fold change [6] | log2 fold change [7]
MAPK14 isoform 2 (UniProt Q16539) | inactive: -0.223 | inactive: -0.398 | inactive: -0.019 | inactive: 0.02 |  | inactive: 0.001 | inactive: 0.039 |  | inactive: -0.029 | inactive: 0.074
LYSMD2 (UniProt Q8IV50) | inactive: 0.062 | inactive: -0.02 | inactive: 0.026 | inactive: -0.053 | inactive: -0.015 | inactive: 0.11 | inactive: 0.008 | inactive: 0.038 | inactive: -0.087 | inactive: -0.008
MAPKAPK2 (UniProt P49137) | inactive: -0.058 | inactive: -0.059 | inactive: 0.026 | inactive: 0.049 |  | inactive: -0.002 | inactive: 0.032 |  | inactive: -0.007 | inactive: -0.018
LTV1 (UniProt Q96GA3) | inactive: 0.09 | inactive: 0.004 | inactive: 0.06 | inactive: -0.109 |  | inactive: 0.023 | inactive: -0.049 |  | inactive: 0.189 | inactive: 0.104
LYZ (UniProt P61626) | inactive: -0.113 | inactive: -0.21 | inactive: 0.912 | inactive: 0.323 | inactive: 0.473 |  | inactive: 0.135 | inactive: 0.039 | inactive: 0.822 | 
LRRC8D (UniProt Q7L1W4) | inactive: 0.186 | inactive: -0.005 | inactive: -0.104 | inactive: -0.082 | inactive: 0.057 |  | inactive: 0.044 |  | inactive: 0.171 | 
LSS (UniProt P48449) | inactive: 0.024 | active: 0.719 | inactive: 0.074 | inactive: 0.129 |  | inactive: -0.024 | inactive: 0.055 |  | inactive: -0.025 | inactive: 0.384
MAPKAPK5 (UniProt Q8IW41) | inactive: 0.009 | inactive: -0.007 | inactive: -0.023 | inactive: 0.045 |  | inactive: -0.132 | inactive: -0.123 |  | inactive: -0.112 | inactive: -0.033
MARK3 (UniProt P27448) | inactive: -0.057 | inactive: -0.078 | inactive: 0.097 | inactive: 0.019 |  | inactive: -0.019 | inactive: 0.055 |  | inactive: 0.051 | active: -0.549
MAGEC2 (UniProt Q9UBF1) | inactive: -0.017 | inactive: -0.146 | inactive: 0.028 | inactive: -0.062 |  | inactive: -0.048 | inactive: -0.007 |  | inactive: -0.063 | inactive: 0
LTN1 isoform 3 (UniProt O94822) | inactive: -0.16 | active: -0.459 | inactive: 0.079 | inactive: -0.012 |  | inactive: -0.019 | inactive: 0.043 |  | inactive: 0.06 | active: -0.498
MAP2K3 isoform 3 (UniProt P46734) | inactive: -0.041 | inactive: -0.17 | inactive: 0.09 | inactive: -0.035 |  | inactive: 0.039 | inactive: 0.038 |  | inactive: -0.054 | inactive: -0.121
LYL1 (UniProt P12980) | inactive: 0.009 | inactive: -0.1 | inactive: -0.181 | inactive: 0.208 | inactive: -0.002 |  | inactive: 0.023 | inactive: 0.07 |  | 
LSR (UniProt Q86X29) | inactive: 0.109 | inactive: 0.068 | inactive: -0.02 | inactive: -0.021 |  | inactive: 0.011 | inactive: -0.033 |  | inactive: -0.001 | active: 0.214
MAD2L1BP isoform 3 (UniProt Q15013) | inactive: -0.01 | inactive: -0.052 | inactive: 0.052 | inactive: 0.094 | inactive: -0.036 |  | inactive: -0.047 | inactive: 0.027 | inactive: -0.012 | 
MAPK12 (UniProt P53778) | inactive: -0.097 | inactive: 0.036 | inactive: -0.128 | inactive: 0.089 |  | inactive: -0.051 | inactive: 0.009 |  | inactive: -0.097 | inactive: -0.077
LRWD1 (UniProt Q9UFC0) | inactive: -0.313 | inactive: -0.221 | inactive: 0.182 | inactive: -0.028 | inactive: -0.042 |  | inactive: 0.008 | inactive: 0.314 | inactive: -0.055 | 
MAPRE3 (UniProt Q9UPY8) | inactive: -0.105 | inactive: -0.226 | inactive: 0.101 | inactive: 0.01 |  | inactive: -0.041 | inactive: -0.009 |  | inactive: -0.068 | inactive: -0.061

Quoted at random: 2 records from the list
Target | log2 fold change [1] | log2 fold change (volasertib) | log2 fold change [2] | log2 fold change (epoxomicin) | log2 fold change [3] | log2 fold change [4] | log2 fold change [5] | log2 fold change (rosiglitazone) | log2 fold change [6] | log2 fold change [7]
LTV1 (UniProt Q96GA3) | inactive: 0.09 | inactive: 0.004 | inactive: 0.06 | inactive: -0.109 |  | inactive: 0.023 | inactive: -0.049 |  | inactive: 0.189 | inactive: 0.104
MAGEC2 (UniProt Q9UBF1) | inactive: -0.017 | inactive: -0.146 | inactive: 0.028 | inactive: -0.062 |  | inactive: -0.048 | inactive: -0.007 |  | inactive: -0.063 | inactive: 0
